Results: PubChem BioAssay AID624297 (National Center for Advancing Translational Sciences (NCATS), 2012)
The campaign covered roughly 340,000 compounds. About 6,200 (1.8%) were called active. The inconclusive results got no clear call from the source; some entries with a clear call stand among them for comparison. Calls follow the shape of the dose curve; as a rule, active = well fitted activation curve with a large enough effect; inconclusive = small, poorly fitted or top-dose-only effect; inactive = no such curve, though single readings can be large or run the other way. Potencies beside an inconclusive call are fits to weak or partial responses and may not hold up.

Test: A quantitative high throughput screen for small molecules that induce DNA re-replication in SW480 colon adenocarcinoma cells. Also: nearly all actives have a fitted effect of over 55% in size. As to re-replication activation: % of control where 0% means no effect.
Conditions: Hoechst DNA content imaging, 48 h; re-replication activation: at 46.1 µM (top of the series) unless noted
Procedure, shortened: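 Cells (250 per well) received 23 nL compound or DMSO by pin tool and were kept 48 hr at 37 C, 5% CO2. Nuclei were then stained with Hoechst for 40 min and scanned for DNA content.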
Potency is read from the fitted curve at half-maximal effect.

Structure (SMILES) | re-replication activation | Potency
CC(C)C[C@H](NC(=O)c1nc[nH]c1C(=O)NCc1ccc(CNC(=O)OC(C)(C)C)cc1)C(=O)OC(C)(C)C | inactive: -16.7% [at 9.22 µM] | –
COc1ccccc1N1CCN(CC(O)COc2ccc3c(C)cc(=O)oc3c2)CC1 (stereo not drawn) | – | inconclusive: 29.1 µM [activator, single point]
COC(=O)[C@@]1(Cc2ccc(OC)cc2)[C@@H]2[C@@H](CC(=O)[C@H]2CC(=O)C(=O)N(C)C)CN1C(=O)c1ccccc1 | – | inactive
O=C(CNC(=O)c1sc2ccccc2c1Cl)NCc1ccccc1 | – | inconclusive: 20.6 µM [activator, single point]
COc1cccc(Sc2ccccc2/C=N/NC(N)=O)c1 | – | active: 6.51 µM
CCCC(C)NC(=O)CN(c1ccc2c(c1)OCCO2)S(=O)(=O)c1ccccc1 (stereo not drawn) | – | inconclusive: 6.51 µM [activator, full curve]
O=C(NCCCn1ccnc1)c1ccc(N2CCCCCC2)c([N+](=O)[O-])c1 | – | inconclusive: 29.1 µM [activator, single point]
Cc1ccc(C2=NN(C(=O)CNCCO)C(c3cccs3)C2)cc1 (stereo not drawn) | – | inactive
N#CCCn1cc(C=C(C#N)C#N)c(-c2ccc(Cl)cc2)n1 | – | inconclusive: 23.1 µM [activator, single point]
Cc1occc1C(=O)N1CCN(C(c2ccccc2)c2ccccc2)CC1 | – | inactive
CCCCNC(=O)c1onc(CCl)c1C(=O)OC | – | inconclusive: 29.1 µM [activator, single point]
O=S(=O)(Nc1cccc(-c2ccc(N3CCCCCC3)nn2)c1)c1ccc(F)cc1 | – | inconclusive: 4.61 µM [activator, single point]
O=C(NCCCn1ccnc1)c1ccc(NS(=O)(=O)c2ccc(Cl)c(Cl)c2)cc1 | – | inconclusive: 29.1 µM [activator, partial curve, poor fit]
CCOC(=O)c1cnc(SC)nc1Oc1cccc(NS(=O)(=O)c2ccc(C)cc2)c1 | – | inconclusive: 32.6 µM [activator, partial curve, poor fit]
COc1ccc(C)cc1N(C(=O)CNC(=O)c1ccco1)C(C(=O)NCC1CCCO1)c1ccccc1 (stereo not drawn) | – | inactive
CC(=O)Nc1ccc(-c2nnn(CC(=O)Nc3ccc4c(c3)OCO4)n2)cc1Cl | – | inconclusive: 18.4 µM [activator, single point]
COc1cc2c(cc1NC(=O)c1ccccc1F)CCCC2 | – | inactive
CC(NCc1ccc(-c2ccccc2)cc1)C(O)c1ccccc1 (stereo not drawn) | – | active: 4.11 µM
CCOc1cc(NC(=O)c2ccccc2C)c(OCC)cc1NC(=O)C1=Cc2ccccc2OC1 | – | inactive
O=C(CSc1nc2sc3c(c2c(=O)n1-c1ccccc1)CCCC3)N/N=C/c1ccc(C(=O)O)cc1 | – | inactive
CCCCn1c(N)c(-c2nc3ccccc3s2)c2c([N+](=O)[O-])nn(CC)c(=O)c21 | – | inactive
CCc1ccc(-n2nc3ccc(NC(=O)c4ccc5c(c4)OCO5)cc3n2)cc1 | – | inconclusive: 18.4 µM [activator, single point]

Structure (SMILES) | re-replication activation | Potency
CC(=O)N1CCN(c2cc(N3CCCC3)c(F)cc2[N+](=O)[O-])CC1 | – | inconclusive: 5.17 µM [activator, single point]
C=C(C)[C@@H]1CC=C(CN2CCN(Cc3ccccc3)CC2)CC1 | – | inactive
COc1ccc(OCCCC(=O)Nc2ccc(OC)c(S(=O)(=O)N3CCOCC3)c2)cc1 | – | inactive
COc1ccc(N(C(=O)c2snc(C(N)=O)c2N)C(C(=O)NCc2ccc(F)cc2)c2ccc(C)o2)c(OC)c1 (stereo not drawn) | – | inconclusive: 20.6 µM [activator, single point]
CC(C)Cn1c(SCC(=O)Nc2ccc(Cl)cc2F)nc(O)cc1=O | – | inconclusive: 1.46 µM [activator, partial curve, poor fit]
O=C(NC(=S)NCCc1ccccn1)c1ccco1 | – | inconclusive: 0.116 µM [activator, full curve, poor fit]
Cc1ccc(-n2nc3c(c2NC(=O)c2ccc(S(=O)(=O)N4CCOCC4)cc2)CSC3)c(C)c1 | – | inconclusive: 32.6 µM [activator, partial curve, poor fit]
Cc1ccc(C)c(C(=O)COc2ccc(C)nc2[N+](=O)[O-])c1 | – | inconclusive: 29.1 µM [activator, single point]
Oc1c(C(c2ccccn2)N2CCC(Cc3ccccc3)CC2)cc(Cl)c2cccnc12 (stereo not drawn) | – | inconclusive: 20.6 µM [activator, single point]
COc1ccc(C)cc1S(=O)(=O)N(C)CC(=O)N1CCCCC1 | – | inactive
COCc1nc(-c2cc(Br)ccc2OC)no1 | – | inactive
Cc1ccc(C)c(S(=O)(=O)N2CCCCC2CCNC(=O)C(=O)NCc2cccnc2)c1 (stereo not drawn) | – | inconclusive: 29.1 µM [activator, single point]
O=S(=O)(N/N=C/c1cccc(OC2CSC2)c1)c1ccccc1 | – | inconclusive: 29.1 µM [activator, single point]
CC1(C)CC(=O)C2=C(C1)Nc1cc(Cl)ccc1S2 | – | inactive
S=C(NCc1ccccn1)Nc1ccc(Br)cc1Cl | – | inconclusive: 18.4 µM [activator, single point]
CCCC(C)c1oc(=O)cc(O)c1C (stereo not drawn) | – | inconclusive: 23.1 µM [activator, single point]
CCc1ccc(/C=C/C(=O)C2C(=O)c3ccccc3C2=O)cc1 | – | inconclusive: 29.1 µM [activator, partial curve, poor fit]
CC(c1ccon1)N(C)Cc1cn(C)nc1-c1cccc(Cl)c1 (stereo not drawn) | – | inconclusive: 0.058 µM [activator, full curve, poor fit]
COc1ccc(-c2cnnn2-c2ccc([N+](=O)[O-])cc2)cc1 | – | inactive
Cn1cccc1CC(=O)N/N=C\c1c2ccccc2cc2ccccc12 | – | inconclusive: 29.1 µM [activator, single point]
CN(C)c1ccc(S(=O)(=O)NCC(=O)NCCOc2ccccc2F)cc1[N+](=O)[O-] | – | inconclusive: 20.6 µM [activator, partial curve, poor fit]

Two of the compounds above, field by field:
O=C(NC(=S)NCCc1ccccn1)c1ccco1
  Potency: inconclusive: 0.116 µM [activator, full curve, poor fit]
Cc1ccc(-n2nc3c(c2NC(=O)c2ccc(S(=O)(=O)N4CCOCC4)cc2)CSC3)c(C)c1
  Potency: inconclusive: 32.6 µM [activator, partial curve, poor fit]
